According to patent US9227959B2, “Ethynyl derivatives” (Hoffmann-La Roche Inc., priority 2012, dated 2016):
For at least one compound, name, drawing or mass did not settle the structure.

Chains of the proteins cited; added tags and fusions are not shown. A line that says so, or that is headed by a name, gives the form on record, which may keep a tag or linker.
UniProt P41594, other isoform, or with tags, fused parts or gaps: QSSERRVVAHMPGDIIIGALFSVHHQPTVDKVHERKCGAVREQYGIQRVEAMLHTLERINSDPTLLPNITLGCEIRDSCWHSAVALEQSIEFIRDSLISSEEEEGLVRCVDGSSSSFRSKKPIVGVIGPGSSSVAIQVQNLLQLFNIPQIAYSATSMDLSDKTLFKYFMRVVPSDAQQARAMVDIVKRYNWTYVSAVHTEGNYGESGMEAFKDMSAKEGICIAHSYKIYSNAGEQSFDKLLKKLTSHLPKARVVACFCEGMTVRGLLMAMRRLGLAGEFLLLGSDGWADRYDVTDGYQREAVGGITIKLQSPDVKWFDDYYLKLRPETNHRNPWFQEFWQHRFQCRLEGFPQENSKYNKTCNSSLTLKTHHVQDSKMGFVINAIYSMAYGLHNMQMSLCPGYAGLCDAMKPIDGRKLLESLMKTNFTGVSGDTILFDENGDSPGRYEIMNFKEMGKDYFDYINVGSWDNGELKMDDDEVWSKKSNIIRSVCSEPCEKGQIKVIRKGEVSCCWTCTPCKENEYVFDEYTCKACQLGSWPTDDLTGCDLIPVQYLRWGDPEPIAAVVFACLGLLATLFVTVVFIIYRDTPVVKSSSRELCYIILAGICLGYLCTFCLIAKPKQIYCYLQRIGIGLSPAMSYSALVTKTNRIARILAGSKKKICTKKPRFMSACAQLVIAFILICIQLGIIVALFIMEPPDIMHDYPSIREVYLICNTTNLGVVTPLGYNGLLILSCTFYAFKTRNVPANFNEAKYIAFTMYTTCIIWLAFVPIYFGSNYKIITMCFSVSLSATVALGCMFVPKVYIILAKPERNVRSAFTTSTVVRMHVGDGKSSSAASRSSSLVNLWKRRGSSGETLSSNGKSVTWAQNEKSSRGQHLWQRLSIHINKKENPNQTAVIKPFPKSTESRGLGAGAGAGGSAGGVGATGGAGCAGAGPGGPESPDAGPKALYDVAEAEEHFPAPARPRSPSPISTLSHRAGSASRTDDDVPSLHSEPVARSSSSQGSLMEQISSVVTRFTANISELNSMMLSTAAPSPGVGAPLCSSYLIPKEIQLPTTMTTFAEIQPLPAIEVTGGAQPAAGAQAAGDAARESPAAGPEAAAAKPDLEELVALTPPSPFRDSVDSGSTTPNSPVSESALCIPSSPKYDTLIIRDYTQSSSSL

Biological target: human mGlu5a receptor (Homo sapiens (Human), UniProt P41594)
Assay: Intracellular Ca2+ mobilization assay (mGlu5 PAM assay)
Format: cell-based
Conditions: PAM = positive allosteric modulator, NAM = negative allosteric modulator
Protocol: A monoclonal HEK-293 cell line stably transfected with a cDNA encoding for the human mGlu5a receptor was generated; for the work with mGlu5 Positive Allosteric Modulators (PAMs), a cell line with low receptor expression levels and low constitutive receptor activity was selected to allow the differentiation of agonistic versus PAM activity. Cells were cultured according to standard protocols (Freshney, 2000) in Dulbecco's Modified Eagle Medium with high glucose supplemented with 1 mM glutamine, 10% (vol/vol) heat-inactivated bovine calf serum, Penicillin/Streptomycin, 50 μg/ml hygromycin and 15 μg/ml blasticidin (all cell culture reagents and antibiotics from Invitrogen, Basel, Switzerland).
About 24 hrs before an experiment, 5×10^4 cells/well were seeded in poly-D-lysine coated, black/clear-bottomed 96-well plates. […] The cells were transferred into a Functional Drug Screening System 7000 (Hamamatsu, Paris, France), and 11 half logarithmic serial dilutions of test compound at 37° C. were added and the cells were incubated for 10-30 min. with on-line recording of fluorescence. […]
Responses were measured as peak increase in fluorescence minus basal (i.e. fluorescence without addition of L-glutamate), normalized to the maximal stimulatory effect obtained with saturating concentrations of L-glutamate. […]

O=C(c1ccc(C#Cc2cccc(Cl)c2)cn1)N1CCOCC1 [Example 2, [5-(3-Chloro-phenylethynyl)-pyridin-2-yl-morpholin-4-yl]-methanone]
Activity profile: NAM
